Data taken from PubChem BioAssay AID540350 (National Center for Advancing Translational Sciences (NCATS), 2011).
Several values for one entry are separate records, joined by “and”; a condition that tells them apart may be missing. Equal values may be shown once. The inconclusive results got no clear call from the source; some entries with a clear call stand among them for comparison. Where the call is inconclusive, the potency comes from a doubtful curve fit. Activity calls are given as the source filed them. Calls come from the whole dose curve; as a rule, active = well fitted inhibition curve with a large enough effect; inconclusive = small, poorly fitted or top-dose-only effect; inactive = no such curve, though single readings can be large or run the other way.

Target: 4'-phosphopantetheinyl transferase Sfp (Bacillus subtilis (strain 168)) (UniProt P39135)
Assay: qHTS Assay for Inhibitos of Bacillus subtilis Sfp phosphopantetheinyl transferase (PPTase): Chemistry Optimization Followup
Conditions: purified Sfp PPTase enzyme activity; series mostly up to 114 µM
Source text: The covalent attachment of a phosphopantetheinyl (4'-PP) arm to a variety of synthases and other proteins is a key posttranslational protein modification. The 4'-PP is installed on the proteins post-translationally from coenzyme A (CoA) on a conserved serine residue by action of phosphopantetheinyl transferase (PPTase) enzymes. Phosphopantetheinylation is essential for synthase activity, and removal of the PPTase gene precludes natural product synthesis in microorganisms, or in the case of fatty acid biosynthesis, renders the organism unviable. PPTase enzymes belong to a distinct structural superfamily. Within bacteria, these enzymes are grouped into two classes based upon primary structure, the AcpS-Type and Sfp-Type PPTases.
Sfp-type PPTases, corresponding to an activator of surfactin production in Bacillus subtilis, are responsible for modifying type I polyketide and nonribosomal peptide synthases of prokaryotes. Sfp-type PPTases are responsible for the activation of a variety of pathogen-associated virulence factors. Among these compounds are toxins such as mycolactone from Mycobacterium ulcerans, siderophores such as vibriobactin from Vibrio cholerae or mycobactin from Mycobacterium tuberculosis, as well as the mycolic acids which form the waxy cell wall of Mycobacteria. The biosyntheses of these natural products are considered attractive targets for drug design.
In search of small molecule Sfp-PPTase inhibitors, a fluorescence quenching assay was developed for detection of Bacillus subtilis Sfp-PPTase enzymatic activity in a miniaturized high-throughput format. The consensus ybbr acceptor peptide […] was N-terminally labeled with Black Hole Quencher-2 (BHQ-2) and used in combination with rhodamine-labeled coenzyme A as a co-substrate.
Inhibition of Sfp-PPTase was detected by recording the fluorescence intensity change over a 30-minute reaction period at a 525 nm excitation and 598 nm emission. Reagents were supplied by Michael Burkart and Timothy Foley, University of California at San Diego.
NIH Chemical Genomics Center [NCGC]
NIH Molecular Libraries Probe Centers Network [MLPCN]
Assay Submitter (PI): Michael Burkart, University of California, San Diego
3 uL of Sfp-PPTase enzyme (final concentration 15 nM) and 1 uL of substrate mixture (final concentration for rhodamine-CoA and BHQ-2-YbbR 5 uM and 12.5 uM, respectively) dispensed in columns 1, 2, 5 - 48. Columns 1 and 2 used to generate neutral control (uninhibited reaction)
Three uL of reagents, consisting of buffer (in columns 3 and 4 as negative control) and Sfp-PPTase (in columns 1, 2, 5 - 48) were dispensed into 1,536-well Greiner black solid bottom plate. Compounds (23 nL) were transferred via Kalypsys pintool equipped with 1,536-pin array. The plate was incubated for 15 min at room temperature, followed by the addition of 1 uL substrate to start the reaction. The plate was then centrifuged at 1000 rpm for 15 seconds, and the fluorescence intensity recorded on a ViewLux High-throughput CCD imager (Perkin-Elmer) using standard BODIPY optics (525 nm excitation and 598 nm emission). The plate was then incubated for 30 minutes, and a second read on the ViewLux was performed. The fluorescence intensity difference over the 30-minute period was used to calculate the respective reaction rate for each well.

Structure (SMILES)	Potency
Cc1cc(C)nc(NC(=S)N2CCN(c3ccncc3)CC2)c1	inconclusive: 7.44 µM [inhibitor, partial curve]
Cc1cc(C)nc(NC(=S)N2CCN(c3cc(Cl)c(Cl)cc3Cl)CC2)c1	active: 4.69 µM
Cc1cc(C)nc(NC(=S)N2CCN(c3nccs3)CC2)c1	inconclusive: 4.18 µM [inhibitor, full curve] and inconclusive: 9.37 µM [inhibitor, full curve]
COc1cccc(NC(=S)N2CCN(c3cc(Cl)cc(Cl)c3)CC2)n1	inconclusive: 6.63 µM [inhibitor, full curve]
CCN1CCN(C(=S)c2ccc(O)cc2)CC1	active: 18.7 µM
COc1cccc(NC(=S)N2CCN(c3ccc(Cl)cc3Cl)CC2)n1	inconclusive: 18.7 µM [inhibitor, full curve]
Cc1cc(C)nc(NC(=S)N2CCN(c3ccccn3)CC2)c1	inconclusive: 5.27 µM [inhibitor, full curve]
